{"sequences": {"note": "Sequences of proteins named here, by UniProt entry; tags and fusion partners are left off.", "UniProt Q8ILA2": "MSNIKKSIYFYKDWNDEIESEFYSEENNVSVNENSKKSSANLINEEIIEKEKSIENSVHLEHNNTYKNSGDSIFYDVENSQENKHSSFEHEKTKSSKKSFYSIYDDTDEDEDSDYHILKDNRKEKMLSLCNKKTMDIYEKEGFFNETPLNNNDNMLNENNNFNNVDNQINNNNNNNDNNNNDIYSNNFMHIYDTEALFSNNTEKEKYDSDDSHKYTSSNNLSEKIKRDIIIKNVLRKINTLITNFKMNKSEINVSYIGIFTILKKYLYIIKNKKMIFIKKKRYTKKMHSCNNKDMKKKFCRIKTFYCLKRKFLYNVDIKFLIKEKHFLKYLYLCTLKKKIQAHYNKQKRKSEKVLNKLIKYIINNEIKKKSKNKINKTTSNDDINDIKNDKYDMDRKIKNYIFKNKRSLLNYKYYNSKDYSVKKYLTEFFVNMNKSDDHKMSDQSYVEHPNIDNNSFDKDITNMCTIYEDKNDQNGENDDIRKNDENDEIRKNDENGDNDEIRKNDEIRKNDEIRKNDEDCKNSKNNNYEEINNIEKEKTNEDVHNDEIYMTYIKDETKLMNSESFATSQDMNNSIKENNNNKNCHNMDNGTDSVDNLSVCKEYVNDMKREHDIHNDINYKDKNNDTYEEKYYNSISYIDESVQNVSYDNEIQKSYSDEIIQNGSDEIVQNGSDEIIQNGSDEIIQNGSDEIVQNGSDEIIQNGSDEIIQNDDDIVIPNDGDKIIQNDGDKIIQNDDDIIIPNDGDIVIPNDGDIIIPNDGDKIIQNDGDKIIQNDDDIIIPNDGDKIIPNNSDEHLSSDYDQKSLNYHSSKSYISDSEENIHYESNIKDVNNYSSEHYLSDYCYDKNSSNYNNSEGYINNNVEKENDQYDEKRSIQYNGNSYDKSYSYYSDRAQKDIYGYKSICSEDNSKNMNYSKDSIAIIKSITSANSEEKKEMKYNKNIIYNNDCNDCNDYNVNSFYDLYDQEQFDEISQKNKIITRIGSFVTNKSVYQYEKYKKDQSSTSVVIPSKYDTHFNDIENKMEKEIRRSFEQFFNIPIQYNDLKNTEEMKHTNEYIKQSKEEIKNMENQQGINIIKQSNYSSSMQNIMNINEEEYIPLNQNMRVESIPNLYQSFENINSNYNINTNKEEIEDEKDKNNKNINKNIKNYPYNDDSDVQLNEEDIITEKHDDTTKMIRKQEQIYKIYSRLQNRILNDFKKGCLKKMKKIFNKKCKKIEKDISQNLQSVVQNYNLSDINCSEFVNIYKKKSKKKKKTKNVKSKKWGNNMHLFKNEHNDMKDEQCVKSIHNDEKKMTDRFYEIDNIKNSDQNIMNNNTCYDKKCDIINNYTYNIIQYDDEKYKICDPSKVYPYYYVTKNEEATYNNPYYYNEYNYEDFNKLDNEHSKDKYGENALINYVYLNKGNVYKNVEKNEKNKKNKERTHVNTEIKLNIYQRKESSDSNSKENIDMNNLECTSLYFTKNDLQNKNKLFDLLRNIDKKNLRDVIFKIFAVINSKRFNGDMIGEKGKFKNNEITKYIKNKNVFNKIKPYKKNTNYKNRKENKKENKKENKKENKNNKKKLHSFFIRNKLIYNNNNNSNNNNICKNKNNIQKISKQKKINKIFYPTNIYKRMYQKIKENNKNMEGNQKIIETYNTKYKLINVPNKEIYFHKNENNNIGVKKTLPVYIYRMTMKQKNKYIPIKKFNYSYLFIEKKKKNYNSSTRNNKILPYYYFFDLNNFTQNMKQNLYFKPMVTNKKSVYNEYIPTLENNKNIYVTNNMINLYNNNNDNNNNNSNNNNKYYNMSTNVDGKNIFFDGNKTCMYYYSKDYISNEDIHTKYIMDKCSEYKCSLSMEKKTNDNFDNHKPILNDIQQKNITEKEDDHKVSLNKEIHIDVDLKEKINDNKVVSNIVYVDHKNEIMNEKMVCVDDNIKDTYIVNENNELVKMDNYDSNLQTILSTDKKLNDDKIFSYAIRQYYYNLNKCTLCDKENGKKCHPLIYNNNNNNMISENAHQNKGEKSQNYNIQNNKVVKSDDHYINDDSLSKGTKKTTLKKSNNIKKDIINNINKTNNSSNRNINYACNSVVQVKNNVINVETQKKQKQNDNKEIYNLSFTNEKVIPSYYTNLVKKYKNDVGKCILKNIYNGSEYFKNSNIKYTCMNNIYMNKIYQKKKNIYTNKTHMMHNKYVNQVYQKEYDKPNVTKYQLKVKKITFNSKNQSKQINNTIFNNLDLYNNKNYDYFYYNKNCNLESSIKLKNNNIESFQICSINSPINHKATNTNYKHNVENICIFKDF", "UniProt Q9U0K8": "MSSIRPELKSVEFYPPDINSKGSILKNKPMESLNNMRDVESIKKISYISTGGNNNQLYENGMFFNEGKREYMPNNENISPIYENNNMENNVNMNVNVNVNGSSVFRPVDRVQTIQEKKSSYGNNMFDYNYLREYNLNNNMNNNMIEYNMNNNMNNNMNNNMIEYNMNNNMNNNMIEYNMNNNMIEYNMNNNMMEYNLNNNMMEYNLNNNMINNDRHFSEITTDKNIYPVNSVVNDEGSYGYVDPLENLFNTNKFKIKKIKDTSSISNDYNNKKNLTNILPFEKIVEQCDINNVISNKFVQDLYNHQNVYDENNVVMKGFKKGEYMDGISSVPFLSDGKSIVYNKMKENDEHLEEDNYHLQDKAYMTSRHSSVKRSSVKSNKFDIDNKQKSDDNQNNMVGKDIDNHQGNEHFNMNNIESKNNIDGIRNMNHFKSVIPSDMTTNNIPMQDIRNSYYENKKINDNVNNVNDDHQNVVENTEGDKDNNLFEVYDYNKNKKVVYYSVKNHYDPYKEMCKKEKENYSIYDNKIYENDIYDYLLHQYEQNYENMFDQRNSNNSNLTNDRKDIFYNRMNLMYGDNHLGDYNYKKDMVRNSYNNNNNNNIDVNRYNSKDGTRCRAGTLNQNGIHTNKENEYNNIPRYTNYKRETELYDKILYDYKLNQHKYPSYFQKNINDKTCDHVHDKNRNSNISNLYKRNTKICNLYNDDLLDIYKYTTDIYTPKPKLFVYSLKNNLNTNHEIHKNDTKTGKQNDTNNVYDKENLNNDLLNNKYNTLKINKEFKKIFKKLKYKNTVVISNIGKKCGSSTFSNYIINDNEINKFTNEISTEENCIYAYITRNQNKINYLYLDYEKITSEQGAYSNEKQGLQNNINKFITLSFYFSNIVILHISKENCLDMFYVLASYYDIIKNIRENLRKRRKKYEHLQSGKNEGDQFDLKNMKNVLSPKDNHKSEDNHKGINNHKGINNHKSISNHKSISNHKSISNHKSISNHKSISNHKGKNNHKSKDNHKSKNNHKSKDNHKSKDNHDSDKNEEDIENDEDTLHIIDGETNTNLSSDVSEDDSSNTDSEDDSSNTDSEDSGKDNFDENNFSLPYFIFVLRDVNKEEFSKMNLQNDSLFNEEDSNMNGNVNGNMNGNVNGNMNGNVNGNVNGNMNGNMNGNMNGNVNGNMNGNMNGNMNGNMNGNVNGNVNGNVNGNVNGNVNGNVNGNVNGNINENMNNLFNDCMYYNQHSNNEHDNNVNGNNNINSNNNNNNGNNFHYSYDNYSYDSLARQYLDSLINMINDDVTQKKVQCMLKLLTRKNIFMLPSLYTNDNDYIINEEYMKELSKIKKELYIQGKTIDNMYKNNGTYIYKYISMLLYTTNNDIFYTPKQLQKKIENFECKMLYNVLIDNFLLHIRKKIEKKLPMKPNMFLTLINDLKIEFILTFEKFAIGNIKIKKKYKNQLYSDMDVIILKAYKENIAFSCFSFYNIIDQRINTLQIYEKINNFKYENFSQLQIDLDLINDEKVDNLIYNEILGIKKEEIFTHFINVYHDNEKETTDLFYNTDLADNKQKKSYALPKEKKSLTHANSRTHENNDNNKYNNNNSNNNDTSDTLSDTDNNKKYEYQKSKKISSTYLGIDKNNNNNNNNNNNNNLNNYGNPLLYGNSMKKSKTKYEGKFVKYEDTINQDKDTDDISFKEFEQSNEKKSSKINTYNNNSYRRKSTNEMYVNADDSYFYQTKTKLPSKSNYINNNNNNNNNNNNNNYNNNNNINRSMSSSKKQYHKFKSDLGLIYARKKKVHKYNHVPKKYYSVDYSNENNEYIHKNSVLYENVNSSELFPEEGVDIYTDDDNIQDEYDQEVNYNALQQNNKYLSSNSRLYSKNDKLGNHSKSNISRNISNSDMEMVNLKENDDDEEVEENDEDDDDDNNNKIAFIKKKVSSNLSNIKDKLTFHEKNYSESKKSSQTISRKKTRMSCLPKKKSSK"}, "source": "paper PMC6522492", "biological_target": "P. falciparum basal complex protein 1 (PfBCP1), PF3D7_1436200 (Plasmodium falciparum (endogenous in 3D7 schizonts)) (UniProt Q8ILA2)", "experiment": "co-IP; RIPA lysate of PfCINCH^smV5-Tet schizonts, pre-cleared, PfBCP1 antisera or pre-immune sera 1 h at 4 °C, Protein A beads, three RIPA washes; eluate immunoblotted with anti-V5", "note": "No constants are given. Whether binding was seen depends on the method and setting. In cells and extracts the contact can be indirect. Some results given as binding are weak or reduced against the parent protein; the word gives no strength."}
{"substance": "P. falciparum coordinator of nascent cell detachment (PfCINCH), PF3D7_0407800, with the spaghetti monster V5 tag at its carboxy terminus (from UniProt Q9U0K8 1-1960)", "values": [{"measurement": "binding", "result": "binds"}]}
